{"source": "patent US20160009801A1", "about": "(EMORY UNIVERSITY, published 2016)", "biological_target": "purified human GPIb-IX complex (human)", "test": "ELISA on immobilized purified human GPIb-IX", "note": "Results are given in words; binding and its absence hold for the method and conditions named. Binding can be weak; no strength is given.", "data": [{"binder": "monoclonal antibody 15C6 (antibody, V domains shown, Mouse hybridoma mAb; also called 15C6.D3) VH: QVTLKESGPGILQPSQTLSLTCSFSGFSLSTSNMGVVWIRQSSGKGLEWLLHILWNDGKFYNPALKSRLTISKDTYNNQVFLKIANVDTADTATYYCARLFSTTTSGYFDVWGAGTTVTVSS VL: DIQMTQSPASLSASVGETVTITCRASGNIHNYLAWYQQKQGKSPQLLVYNAETLADGVPSRFSGSESGTQYSLKINSLQPEDFGTYYCQHFWDTPWTFGGGTKLEIK", "values": [{"measurement": "binding", "result": "binds"}]}, {"binder": "monoclonal antibody 1H5 (antibody, IgG3, V domains shown) VH: EVKLVESGGGLVKPGGSLKLSCAASGFAFSSYDMSWVRQTPEKRLEWVATISSGGSYTFYPESVKGRITVYRDNARNTLYLQMSSLRSEDTALYYCATLHYNYERGAVDYWGQGTSVTVSS VL: DVVVTQTPSSMYASLGERVSITCKASQDINRYLSWIQQKPGKSPKTLIYRTDRLVEGAPSRFSGSGSGQDYSLTISSLEYEDMGIYNCLQYDEFPVTFGAGTKLEIKR", "values": [{"measurement": "binding", "result": "binds"}]}, {"binder": "monoclonal antibody 2B9 (antibody, IgG2b, V domains shown) VH: IQLVQSGPELKKPGETVKISCKASGYTFTDYAMHWVKQAPAKGLKWMGWINTETGEPTYADDFKGRFAFSLETSASTAYLQINNLKNEDTATYFCAGDPLDYWGQGTTLTVSS VL: DVVVTQTPLSLPVSFGDQVSISCRSSQSLANSYGNTYLSWYLHKPGQSPQLLIYEISNRFSGVSDRFSGSGSGTDFTLKISTIKPEDLGIYYCLQGTHQPWTFGGGTKLEIK", "values": [{"measurement": "binding", "result": "binds"}]}, {"binder": "monoclonal antibody 2D2 (antibody, V domains shown) VH: QIQLVQSGPELKKPGETVKISCKASGYTFTDYAMHWVKQAPAKGLKWMGWINTETGEPTYADDFKGRFAFSLETSASTAYLQINNLKNEDTATYFCAGDPLDYWGQGTTLTVSS VL: DVVVTQTPLSLPVSFGDQVSISCRSSQSLANSYGNTYLSWYLHKPGQSPQLLIYEISNRFSGVSDRFSGSGSGTDFTLKISTIKPEDLGIYYCLQGTHQPWTFGGGTKLEIK", "values": [{"measurement": "binding", "result": "binds"}]}, {"binder": "monoclonal antibody 3D1 (antibody, V domains shown, Mouse hybridoma mAb; also called 3D1.C1; 3D1.E3) VH: QIQLVQSGPELKKPGETVKISCKASGYTFTDFAMHWVKQAPRKGLKWMGWINTETGEPTYADDFKGRFAFSLGTSASTAFLQINNLKNEDTATYFCSSDPLDYWGQGTTLTVSS VL: DVVVTQTPLSLPVSFGDQVSISCRSSQSLTNSYGNTYLSWFLHKPGQSPQLLIYEISNRFSGVPDRFSGSGSGTDFTLKISTIKPEDLGIYYCLQGTHQPWTFGGGTKLEIK", "values": [{"measurement": "binding", "result": "binds"}]}]}
